# In doi:10.1101/2023.05.03.539280:
# Protein sequences, listed by entry. Tags and fused reporters are not part of them.
# UniProt Q9NFU0: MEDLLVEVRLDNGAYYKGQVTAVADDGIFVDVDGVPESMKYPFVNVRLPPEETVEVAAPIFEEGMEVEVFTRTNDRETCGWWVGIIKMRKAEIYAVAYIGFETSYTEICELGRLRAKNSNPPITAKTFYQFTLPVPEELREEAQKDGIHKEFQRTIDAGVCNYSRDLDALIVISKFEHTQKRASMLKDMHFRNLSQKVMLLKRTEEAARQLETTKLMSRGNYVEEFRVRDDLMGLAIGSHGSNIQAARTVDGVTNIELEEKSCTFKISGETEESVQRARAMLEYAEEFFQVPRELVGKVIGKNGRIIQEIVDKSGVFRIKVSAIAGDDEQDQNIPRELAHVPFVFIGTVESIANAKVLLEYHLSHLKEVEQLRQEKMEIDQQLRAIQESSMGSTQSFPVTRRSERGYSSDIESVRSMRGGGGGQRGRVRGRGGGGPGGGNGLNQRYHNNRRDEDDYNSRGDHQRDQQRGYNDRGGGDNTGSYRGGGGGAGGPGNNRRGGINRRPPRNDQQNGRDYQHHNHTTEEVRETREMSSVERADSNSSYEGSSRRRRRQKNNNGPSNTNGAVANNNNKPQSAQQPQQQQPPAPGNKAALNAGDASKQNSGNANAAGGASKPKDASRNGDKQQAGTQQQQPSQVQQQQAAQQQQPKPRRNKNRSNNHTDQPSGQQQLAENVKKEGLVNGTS
# UniProt Q32KD4: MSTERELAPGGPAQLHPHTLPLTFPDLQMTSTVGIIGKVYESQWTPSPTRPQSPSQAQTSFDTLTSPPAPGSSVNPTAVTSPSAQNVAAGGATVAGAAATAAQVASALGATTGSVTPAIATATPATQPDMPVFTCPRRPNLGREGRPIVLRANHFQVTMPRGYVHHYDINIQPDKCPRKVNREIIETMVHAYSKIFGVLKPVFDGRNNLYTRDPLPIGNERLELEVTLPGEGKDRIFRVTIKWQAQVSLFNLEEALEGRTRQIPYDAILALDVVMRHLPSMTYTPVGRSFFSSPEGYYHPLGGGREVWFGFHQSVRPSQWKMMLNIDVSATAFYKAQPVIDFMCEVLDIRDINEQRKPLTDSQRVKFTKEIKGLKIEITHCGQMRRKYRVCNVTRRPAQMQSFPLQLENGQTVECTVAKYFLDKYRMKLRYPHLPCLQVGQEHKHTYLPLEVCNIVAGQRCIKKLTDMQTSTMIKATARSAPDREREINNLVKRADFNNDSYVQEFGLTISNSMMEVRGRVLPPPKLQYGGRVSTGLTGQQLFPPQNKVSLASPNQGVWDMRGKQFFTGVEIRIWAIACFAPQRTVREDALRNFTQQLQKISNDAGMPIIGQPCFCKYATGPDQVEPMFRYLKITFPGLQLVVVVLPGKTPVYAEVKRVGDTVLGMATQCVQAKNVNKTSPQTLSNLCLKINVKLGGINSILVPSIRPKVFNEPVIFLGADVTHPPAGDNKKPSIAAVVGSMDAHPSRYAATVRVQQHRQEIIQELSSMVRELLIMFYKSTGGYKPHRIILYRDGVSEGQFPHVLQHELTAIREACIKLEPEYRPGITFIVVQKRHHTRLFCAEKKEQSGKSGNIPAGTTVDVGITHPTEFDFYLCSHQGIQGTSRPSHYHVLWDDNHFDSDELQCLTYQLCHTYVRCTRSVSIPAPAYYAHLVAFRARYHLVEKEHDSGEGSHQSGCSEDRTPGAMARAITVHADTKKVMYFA
# These are yes or no findings as the source states them, for the method shown. In cells and extracts the contact can be indirect. Some results given as binding are weak or reduced against the parent protein; the word gives no strength. Where a sequence is shown, tags or fusion partners need not be part of it.
# Biological target: λN-HA tagged full length Drosophila FMRP (dFMRP) (Drosophila) (UniProt Q9NFU0)
# Assay: co-IP
row,binding,Molecule
1,binds,FLAG-tagged AGO1 (from UniProt Q32KD4 1-984)
2,binds,"FLAG-tagged GW182 (protein, UniProt Q8SY33 1-1384) MREALFSQDGWGCQHVNQDTNWEVPSSPEPANKDAPGPPMWKPSINNGTDLWESNLRNGGQPAAQQVPKPSWGHTPSSNLGGTWGEDDDGADSSSVWTGGAVSNAGSGAAVGVNQAGVNVGPGGVVSSGGPQWGQGVVGVGLGSTGGNGSSNITGSSGVATGSSGNSSNAGNGWGDPREIRPLGVGGSMDIRNVEHRGGNGSGATSSDPRDIRMIDPRDPIRGDPRGISGRLNGTSEMWGHHPQMSHNQLQGINKMVGQSVATASTSVGTSGSGIGPGGPGPSTVSGNIPTQWGPAQPVSVGVSGPKDMSKQISGWEEPSPPPQRRSIPNYDDGTSLWGQQTRVPAASGHWKDMTDSIGRSSHLMRGQSQTGGIGIAGVGNSNVPVGANPSNPISSVVGPQARIPSVGGVQHKPDGGAMWVHSGNVGGRNNVAAVTTWGDDTHSVNVGAPSSGSVSSNNWVDDKSNSTLAQNSWSDPAPVGVSWGNKQSKPPSNSASSGWSTAAGVVDGVDLGSEWNTHGGIIGKSQQQQKLAGLNVGMVNVINAEIIKQSKQYRILVENGFKKEDVERALVIANMNIEEAADMLRANSSLSMDGWRRHDESLGSYADHNSSTSSGGFAGRYPVNSGQPSMSFPHNNLMNNMGGTAVTGGNNNTNMTALQVQKYLNQGQHGVAVGPQAVGNSSAVSVGFGQNTSNAAVAGAASVNIAANTNNQPSGQQIRMLGQQIQLAIHSGFISSQILTQPLTQTTLNLLNQLLSNIKHLQAAQQSLTRGGNVNPMAVNVAISKYKQQIQNLQNQINAQQAVYVKQQNMQPTSQQQQPQQQQLPSVHLSNSGNDYLRGHDAINNLQSNFSELNINKPSGYQGASNQQSRLNQWKLPVLDKEINSDSTEFSRAPGATKQNLTANTSNINSLGLQNDSTWSTGRSIGDGWPDPSSDNENKDWSVAQPTSAATAYTDLVQEFEPGKPWKGSQIKSIEDDPSITPGSVARSPLSINSTPKDADIFANTGKNSPTDLPPLSLSSSTWSFNPNQNYPSHSWSDNSQQCTATSELWTSPLNKSSSRGPPPGLTANSNKSANSNASTPTTITGGANGWLQPRSGGVQTTNTNWTGGNTTWGSSWLLLKNLTAQIDGPTLRTLCMQHGPLVSFHPYLNQGIALCKYTTREEANKAQMALNNCVLANTTIFAESPSENEVQSIMQHLPQTPSSTSSSGTSGGNVGGVGTSANNANSGSAACLSGNNSGNGNGSASGAGSGNNGNSSCNNSAAGGGSSSNNTITTVANSNLVGSSGSVSNSSGVTANSSTVSVVSCTASGNSINGAGTANSSGSKSSANNLASGQSSASNLTNSTNSTWRQTSQNQALQSQSRPSGREADFDYISLVYSIVDD"
